The data set has as its system T1, GAL4AD-PvMYB4 (Panicum virgatum).
T1 sequence (limits assumed): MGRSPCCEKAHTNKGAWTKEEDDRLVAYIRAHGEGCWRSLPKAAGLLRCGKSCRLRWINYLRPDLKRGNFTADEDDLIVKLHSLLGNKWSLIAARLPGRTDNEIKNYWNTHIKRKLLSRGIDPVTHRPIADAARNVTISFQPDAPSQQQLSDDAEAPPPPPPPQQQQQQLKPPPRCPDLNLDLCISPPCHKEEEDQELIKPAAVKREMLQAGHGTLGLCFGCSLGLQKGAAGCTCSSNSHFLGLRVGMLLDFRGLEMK
Description: one hybrid. To be noted: protein in cells, protein details: GAL4 activation domain fusion, yeast YM4721, only the site is given.

[1] abbreviates: yeast lacZ reporter, range over AC-I to AC-III.

Construct, isoform or probe ends are uncertain for at least one entry. A negative result means that nothing was seen under these conditions. Where a protein sequence is shown, tags need not be part of it.

On to “ACCAAAC (double strand) [AC-IV element (3 copies in lacZ reporter)]”, for which, under “no repression in yeast”, the “activity on this sequence” value is given as “not active”. With “ACCTACC (double strand) [AC-I element (3 copies in lacZ reporter)]”, the “activity on this sequence” value under setting [1] is “active”.

With “ACCAACC (double strand) [AC-II element (3 copies in lacZ reporter)]”, under setting [1], the “activity on this sequence” value is listed as “active”. Regarding “ACCTAAC (double strand) [AC-III element (3 copies in lacZ reporter)]”, under setting [1], the “activity on this sequence” value is “active”.

The values above are taken from US20120322122.
